± gives the standard deviation of the averaged measurements. These are raw signals, not scaled to a control.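 Each value averages three technical replicates run on separate plates. Reagent-free control wells on every plate corrected for the cells' own fluorescence, and DMSO-treated wells served as vehicle controls. No active or hit threshold is defined for these live-cell readings.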
Tests used:
[1] = tested on: U-2 OS; experiment: AUC of Cytotox red (membrane-compromised) object count (AUC (object count x time)); higher = more apoptotic or dead cells
Description: (§1)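 Live-cell Incucyte imaging of U-2 OS cells with Caspase-3/7 Green and Cytotox Red reagents. Compounds were tested mostly at 5, 10 and 20 uM, and cells were imaged every 4 h for up to 60 h. Value is the area under the curve of positive object counts over time, per channel: green = caspase 3/7, red = membrane-compromised, overlap = both.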

[2] = tested on: U-2 OS; experiment: AUC of caspase 3/7-positive object count (AUC (object count x time)); higher = more apoptotic or dead cells
Description: as §1

Compound | AUC of Cytotox red ([1]; 5 µM) | AUC of Cytotox red ([1]; 10 µM) | AUC of Cytotox red ([1]; 20 µM) | AUC of caspase 3/7-positive object count ([2]; 5 µM) | AUC of caspase 3/7-positive object count ([2]; 10 µM) | AUC of caspase 3/7-positive object count ([2]; 20 µM) | AUC of Cytotox red ([1]; 40 µM) | AUC of Cytotox red ([1]; 80 µM) | AUC of caspase 3/7-positive object count ([2]; 40 µM) | AUC of caspase 3/7-positive object count ([2]; 80 µM) | AUC of Cytotox red ([1]; 0.625 µM) | AUC of Cytotox red ([1]; 1.25 µM) | AUC of Cytotox red ([1]; 2.5 µM) | AUC of caspase 3/7-positive object count ([2]; 0.625 µM) | AUC of caspase 3/7-positive object count ([2]; 1.25 µM) | AUC of caspase 3/7-positive object count ([2]; 2.5 µM)
CNc1nc(-c2ccccc2)[n+](-c2ccccc2)s1 | 40.4 | 46.2 | 50.8 | 25.9 | 22.8 | 31.5 |  |  |  |  |  |  |  |  |  | 
CC[C@H]1CN2CCc3cc(OC)c(OC)cc3[C@@H]2C[C@@H]1C[C@H]1NCCc2cc(OC)c(OC)cc21.Cl.Cl.O | 382 | 655 | 677 | 416 | 677 | 797 |  |  |  |  |  |  |  |  |  | 
COc1ccc(N2C(=O)CC(Sc3nnc(-c4ccccc4)o3)C2=O)cc1 (stereo not given) | 143 | 1470 | 1760 | 102 | 471 | 761 |  |  |  |  |  |  |  |  |  | 
CCCCCCCCCCCCCCCc1cccc(O)c1C(=O)O | 33.2 | 34.5 | 28.8 | 42 | 39.2 | 52 | 19.1 | 81.7 | 36.4 | 76.2 |  |  |  |  |  | 
CCN1CCN(c2ccc3nsnc3c2[N+](=O)[O-])CC1 | 30.6 | 47.1 | 27.7 | 32.8 | 36.7 | 17.8 |  |  |  |  |  |  |  |  |  | 
O=S1(=O)C=C(Sc2nn(-c3ccccc3)c(=S)s2)c2ccccc21 | 971 | 831 | 641 | 929 | 734 | 432 |  |  |  |  |  |  |  |  |  | 
Nc1nc(-c2ccccc2)[n+](-c2ccccc2)s1 | 38.8 | 46.4 | 34.7 | 24.9 | 33.4 | 29 |  |  |  |  |  |  |  |  |  | 
COc1cc2c(c(OC)c1OC)-c1ccc(OC)c(=O)cc1[C@@H](NC(C)=O)CC2 | 574 | 497 | 509 ± 18 | 629 | 596 | 613 ± 30 |  |  |  |  | 585 | 622 | 547 | 581 | 654 | 605
COc1cc([C@@H]2c3cc4c(cc3[C@@H](O[C@@H]3O[C@@H]5CO[C@@H](C)O[C@H]5[C@H](O)[C@H]3O)[C@H]3COC(=O)[C@H]23)OCO4)cc(OC)c1O | 85.9 | 104 | 326 | 130 | 143 | 476 |  |  |  |  |  |  |  |  |  | 
COc1cc([C@@H]2c3cc4c(cc3[C@H](O)[C@H]3COC(=O)[C@H]23)OCO4)cc(OC)c1OC | 489 | 509 | 613 | 439 | 477 | 586 |  |  |  |  |  |  |  |  |  | 
Cc1cc2c(C(C)C)c(O)c(O)c(C=O)c2c(O)c1-c1c(C)cc2c(C(C)C)c(O)c(O)c(C=O)c2c1O | 17.7 | 31.6 | 79.5 | 31.2 | 57.8 | 157 | 594 | 593 | 777 | 622 |  |  |  |  |  | 
CNC(=O)c1cc(Oc2ccc(NC(=O)Nc3ccc(Cl)c(C(F)(F)F)c3)cc2)ccn1 | 43.6 | 97.1 | 268 | 41.6 | 133 | 946 |  |  |  |  |  |  |  |  |  | 
Cc1onc(C(=O)N2CCN(C(c3ccc(Cl)cc3)c3ccc(Cl)cc3)CC2)c1[N+](=O)[O-] | 963 | 863 | 710 | 484 | 435 | 428 |  |  |  |  |  |  |  |  |  | 
C[C@@H]1C[C@H]2O[C@@H]2/C=C\C=C\C(=O)Cc2c(Cl)c(O)cc(O)c2C(=O)O1 | 288 | 299 | 83.8 | 414 | 353 | 57.4 |  |  |  |  | 59.4 | 48.7 | 40.4 | 58.5 | 42 | 31
O=C1/C(=C/c2ccc(O)c(Br)c2)CCC/C1=C\c1ccc(O)c(Br)c1 | 42.1 |  |  | 54.7 |  |  |  |  |  |  |  |  |  |  |  | 
Cn1c(=O)n(-c2ccc(C(C)(C)C#N)cc2)c2c3cc(-c4cnc5ccccc5c4)ccc3ncc21 | 64.7 | 74.4 | 178 | 82.6 | 112 | 175 |  |  |  |  |  |  |  |  |  | 
COC(=O)[C@]1(C)CC[C@]2(C)CC[C@]3(C)C4=CC=C5C(=CC(=O)C(O)=C5C)[C@]4(C)CC[C@@]3(C)[C@@H]2C1 | 885 | 941 |  | 678 | 650 | 663 |  |  |  |  |  |  |  |  |  | 
Cc1cnc(CNC(=O)c2c(=O)c3ccc(N4CCCN(C)CC4)nc3n3c2sc2ccccc23)cn1 | 94.3 | 128 | 80.3 | 75 | 139 | 104 |  |  |  |  |  |  |  |  |  | 
Cc1ccc(C(=O)N(CCCN)[C@@H](c2oc3cc(Cl)ccc3c(=O)c2Cc2ccccc2)C(C)C)cc1.Cl | 374 | 1350 | 1420 | 374 | 636 | 214 |  |  |  |  |  |  |  |  |  | 
CNC(=O)Nc1ccc2c(c1)[C@@]1(CC2)OC(=O)N(CC(=O)N(Cc2ccc(F)cc2)[C@@H](C)C(F)(F)F)C1=O | 33.5 | 24.5 | 28.9 | 49.8 | 41 | 35.6 |  |  |  |  |  |  |  |  |  | 
CCCCCCCc1ccc(CCc2cccc(O)c2C(=O)O)cc1 | 43.5 | 35.3 | 398 | 33.6 | 14.3 | 49.1 | 662 | 925 | 59.2 | 84.2 |  |  |  |  |  | 
C[C@@H]1Cc2c(Cl)cc(C(=O)N[C@@H](Cc3ccccc3)C(=O)O)c(O)c2C(=O)O1 | 97.6 | 143 | 268 | 137 | 186 | 324 |  |  |  |  |  |  |  |  |  | 
Cc1ccc(C(=O)N(CCCN)[C@@H](c2nc3cc(Cl)ccc3c(=O)n2Cc2ccccc2)C(C)C)cc1 | 258 | 504 | 1240 | 296 | 534 | 167 |  |  |  |  |  |  |  |  |  | 
C=C1[C@@H](C)[C@H]2[C@H](Cc3ccccc3)NC(=O)[C@]23OC(=O)/C=C/[C@H](O)CCC[C@@H](C)C/C=C/[C@H]3[C@@H]1O | 128 | 166 | 280 | 107 | 149 | 245 |  |  |  |  |  |  |  |  |  | 
CC(C)=C[C@@H]1CO[C@]23C[C@]4(CO2)[C@H](CC[C@@H]2[C@@]5(C)CC[C@H](O[C@@H]6OC[C@H](O)[C@H](O[C@@H]7O[C@H](CO)[C@@H](O)[C@H](O)[C@H]7O)[C@H]6O[C@@H]6O[C@@H](CO)[C@H](O)[C@H]6O)C(C)(C)[C@@H]5CC[C@]24C)[C@H]3[C@@]1(C)O | 323 | 1420 | 1650 | 203 | 129 | 175 |  |  |  |  |  |  |  |  |  | 
NC(=O)c1ccc(I)c([N+](=O)[O-])c1 | 49 | 54.5 | 37 | 74.2 | 75.9 | 50.6 |  |  |  |  |  |  |  |  |  | 

Single values from the results shown.
`O=S1(=O)C=C(Sc2nn(-c3ccccc3)c(=S)s2)c2ccccc21` | AUC of caspase 3/7-positive object count ([2]; 10 µM): 734
`CNC(=O)c1cc(Oc2ccc(NC(=O)Nc3ccc(Cl)c(C(F)(F)F)c3)cc2)ccn1` | AUC of caspase 3/7-positive object count ([2]; 10 µM): 133
